Results are given in words; binding and its absence hold for the method and conditions named. Binding seen in cells or lysates may run through a third protein. Some binding calls cover weakened binding; strength is not graded here. For part of these data: Where a sequence is shown, tags or fusion partners need not be part of it.
Experiments:
[1] = biological target: T1, MBP-Dma1(full-length) (S. pombe) (UniProt Q10322); experiment: pull-down; purified bacterially expressed MBP-Dma1 variants incubated with clarified lysate of tip1-6HA yeast cells for 1–2 h at 4 °C in NP-40 buffer, precipitated by amylose resin, western blot; only the target purified
T1 sequence: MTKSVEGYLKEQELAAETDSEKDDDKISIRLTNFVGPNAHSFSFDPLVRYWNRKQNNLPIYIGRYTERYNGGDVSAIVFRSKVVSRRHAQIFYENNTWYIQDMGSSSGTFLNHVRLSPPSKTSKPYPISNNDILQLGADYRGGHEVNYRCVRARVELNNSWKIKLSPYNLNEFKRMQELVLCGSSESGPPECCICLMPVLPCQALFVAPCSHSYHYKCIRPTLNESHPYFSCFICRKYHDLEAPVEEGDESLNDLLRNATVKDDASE

By UniProt entry, the sequences of proteins in these tests, tags left out. Where a name states a change or a piece, a line headed by the entry shows the natural chain unless it says otherwise.
UniProt P0CG48: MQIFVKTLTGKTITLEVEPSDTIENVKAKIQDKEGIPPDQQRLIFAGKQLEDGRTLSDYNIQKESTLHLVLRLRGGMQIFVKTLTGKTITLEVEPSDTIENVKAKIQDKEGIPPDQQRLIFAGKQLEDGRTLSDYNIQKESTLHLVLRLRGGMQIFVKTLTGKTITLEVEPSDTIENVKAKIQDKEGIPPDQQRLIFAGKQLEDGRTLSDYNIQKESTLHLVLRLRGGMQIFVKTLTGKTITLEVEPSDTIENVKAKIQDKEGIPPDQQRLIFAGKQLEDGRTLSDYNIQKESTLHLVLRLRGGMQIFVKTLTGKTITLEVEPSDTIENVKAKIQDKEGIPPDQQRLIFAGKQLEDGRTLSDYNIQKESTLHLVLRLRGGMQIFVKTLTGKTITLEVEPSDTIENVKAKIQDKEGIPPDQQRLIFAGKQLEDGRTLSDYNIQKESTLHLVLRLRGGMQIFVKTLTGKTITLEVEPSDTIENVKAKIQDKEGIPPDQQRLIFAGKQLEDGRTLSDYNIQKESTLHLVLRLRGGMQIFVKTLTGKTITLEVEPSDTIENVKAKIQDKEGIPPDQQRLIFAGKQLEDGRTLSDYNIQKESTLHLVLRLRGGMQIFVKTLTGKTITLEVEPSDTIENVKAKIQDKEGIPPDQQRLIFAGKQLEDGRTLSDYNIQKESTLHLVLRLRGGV

[2] = biological target: T2, MBP-Dma1(1-173aa) (S. pombe) (UniProt Q10322); experiment: as above
T2 sequence: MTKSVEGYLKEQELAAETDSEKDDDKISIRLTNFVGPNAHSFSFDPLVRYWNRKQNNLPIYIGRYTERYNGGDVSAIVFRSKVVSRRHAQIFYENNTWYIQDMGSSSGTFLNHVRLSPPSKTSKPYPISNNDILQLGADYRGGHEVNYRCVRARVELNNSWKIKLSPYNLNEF

[3] = biological target: NTAP-Dma1-5xGly-ubiquitin(7K→7R) (S. pombe | not stated) (UniProt Q10322+P0CG48); experiment: co-IP; NTAP-Dma1 or NTAP-Dma1-5xGly-Ub(7KR) precipitated from S. pombe lysate with IgG Sepharose beads; NP-40 buffer (Supplementary Fig. 1c)
NTAP-Dma1 (S. pombe) = biological target: T3, NTAP-Dma1 (S. pombe) (UniProt Q10322); experiment: as above
T3 sequence: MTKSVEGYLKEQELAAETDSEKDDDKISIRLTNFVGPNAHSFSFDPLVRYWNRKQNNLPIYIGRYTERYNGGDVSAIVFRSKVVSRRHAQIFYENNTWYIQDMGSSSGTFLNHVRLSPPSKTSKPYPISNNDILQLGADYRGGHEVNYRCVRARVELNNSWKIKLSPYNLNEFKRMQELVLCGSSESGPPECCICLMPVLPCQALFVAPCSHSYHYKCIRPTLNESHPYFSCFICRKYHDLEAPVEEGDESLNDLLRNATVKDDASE

MBP-Tea4 (S. pombe) = biological target: T4, MBP-Tea4 (S. pombe) (UniProt O60132); experiment: pull-down; purified bacterially expressed MBP-Tea4 incubated with lysates of HU-treated Tip1-6HA yeast strains (wild type or dma1Δ; lysate with or without 50 nM USP2 for 2 h at 4 °C); 1–2 h at 4 °C; amylose resin; western blot; only the target purified
T4 sequence: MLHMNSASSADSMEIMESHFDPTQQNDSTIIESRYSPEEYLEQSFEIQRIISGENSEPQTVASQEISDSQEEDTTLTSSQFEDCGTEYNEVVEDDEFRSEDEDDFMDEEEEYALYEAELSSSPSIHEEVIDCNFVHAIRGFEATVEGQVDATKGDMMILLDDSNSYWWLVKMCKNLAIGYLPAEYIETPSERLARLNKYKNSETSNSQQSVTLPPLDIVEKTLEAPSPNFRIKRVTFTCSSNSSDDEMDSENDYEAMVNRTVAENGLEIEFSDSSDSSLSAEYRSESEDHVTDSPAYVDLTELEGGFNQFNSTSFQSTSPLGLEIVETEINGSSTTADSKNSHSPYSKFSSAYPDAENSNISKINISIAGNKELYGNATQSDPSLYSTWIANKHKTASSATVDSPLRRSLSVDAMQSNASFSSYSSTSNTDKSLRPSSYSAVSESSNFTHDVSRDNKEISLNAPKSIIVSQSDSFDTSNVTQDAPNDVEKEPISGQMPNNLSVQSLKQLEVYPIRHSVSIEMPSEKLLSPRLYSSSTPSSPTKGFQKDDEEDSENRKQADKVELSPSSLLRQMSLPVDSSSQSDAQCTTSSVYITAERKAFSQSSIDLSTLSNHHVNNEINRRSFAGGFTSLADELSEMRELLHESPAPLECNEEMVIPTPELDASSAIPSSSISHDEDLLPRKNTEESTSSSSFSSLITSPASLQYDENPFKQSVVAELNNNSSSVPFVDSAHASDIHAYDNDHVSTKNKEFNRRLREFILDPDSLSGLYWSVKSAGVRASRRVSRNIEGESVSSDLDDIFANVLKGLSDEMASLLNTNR

Dma1-GFP (S. pombe) = biological target: T5, Dma1-GFP (S. pombe) (UniProt Q10322); experiment: co-IP; lysates of S. pombe cells expressing GFP-tagged Dma1 (whole or 1-173aa) and 6HA-tagged Tip1 (whole or truncated); NP-40 buffer; GFP fusion immunoprecipitated with anti-GFP, anti-HA blot
T5 sequence: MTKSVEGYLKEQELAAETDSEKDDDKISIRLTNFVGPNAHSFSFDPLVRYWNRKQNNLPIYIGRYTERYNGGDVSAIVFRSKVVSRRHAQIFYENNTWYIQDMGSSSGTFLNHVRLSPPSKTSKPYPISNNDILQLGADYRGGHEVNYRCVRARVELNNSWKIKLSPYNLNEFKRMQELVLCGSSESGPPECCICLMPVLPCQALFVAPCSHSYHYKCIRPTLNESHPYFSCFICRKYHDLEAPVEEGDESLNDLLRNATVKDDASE

Measured: binding

B1: Tip1-6HA (protein, UniProt P79065 1-461)
chain: MFPLGSVVEVITGERGFVRYAGEVENRKGVYVGLELLPEFAEFGKNRGVVDGREYFKTKNNEKTGIFVPFDKCKLASSISSSPSPKIDGTAASIGMGFPPMSPNLQSSIPRLTNVSSSSNLSMNTISSTALTPTEKILQKRIEDLLYERQNHQQQLEEVLATVDQLQSLVTNFNDQQDEVDELRERITLKEERIQQMRNEASQRRFEFKTTIECLEESSNRAIETYENRIAELEAQLEMYMSGKSEDDLLFSLQQERDYALNQVEILQERVDTLMKQKANSSTANEKLSHMESSSPTLTNASFESPKRGKGSNDLPENHPQRRQTLEFYEIEIEVLREKVEKLQALSDEKDFYISKLEKSLDRNDTTPVPSDEKLSNYAAEKENLVSRISELEHTIEQLTINNERDNERMSPAEFELETTQEVEENDSDSHDDEETWCEVCETNNHSLQECPTVFGSTDEA
binds: [1] | [2] | [3] | NTAP-Dma1 (S. pombe) | MBP-Tea4 (S. pombe) | Dma1-GFP (S. pombe)

Reference: PMC9499959
